## Library screen at single concentrations

Protein sequences, listed by entry. Tags and fused reporters are not part of them. Residues count along the entry.
UniProt Q8IDJ8, 1-583: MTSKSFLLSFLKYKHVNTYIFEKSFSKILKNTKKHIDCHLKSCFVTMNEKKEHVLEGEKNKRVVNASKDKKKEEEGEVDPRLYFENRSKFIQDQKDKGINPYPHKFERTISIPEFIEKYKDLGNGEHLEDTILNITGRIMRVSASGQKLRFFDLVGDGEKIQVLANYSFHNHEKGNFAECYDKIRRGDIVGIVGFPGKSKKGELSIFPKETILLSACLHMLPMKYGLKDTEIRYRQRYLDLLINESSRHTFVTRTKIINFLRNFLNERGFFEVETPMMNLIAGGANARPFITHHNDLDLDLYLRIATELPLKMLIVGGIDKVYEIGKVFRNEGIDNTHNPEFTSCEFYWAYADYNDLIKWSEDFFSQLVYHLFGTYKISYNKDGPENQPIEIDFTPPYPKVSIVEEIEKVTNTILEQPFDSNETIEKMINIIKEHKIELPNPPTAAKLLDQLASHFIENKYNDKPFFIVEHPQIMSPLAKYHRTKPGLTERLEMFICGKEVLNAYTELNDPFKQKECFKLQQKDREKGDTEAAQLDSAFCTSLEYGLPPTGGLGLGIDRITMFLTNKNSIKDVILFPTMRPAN

Source: ChEMBL document CHEMBL3988442, “University of Dundee, Small-Polar-MMV Screening Library” (2021).

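Enzyme assay of the cytosolic lysyl-tRNA synthetase in 384-well plates, read by luminescence. Target: Lysine-tRNA ligase, Plasmodium falciparum 3D7 (UniProt Q8IDJ8). Tested at 30 µM. Higher reads as stronger inhibition, judged from the few compounds that gave an IC50. Size under these conditions: about 69,000 compounds, about 49 of them at 50% or above in at least one test.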

Values are the deposited “Percent Effect”, in %. The controls that fix the scale are not given in the record; negative values are as filed. This is an unselected part of the compounds tested.

| # | SMILES | percent effect |
|---|---|---|
| 1 | `COc1ccc(CC(=O)N2CCCC(n3cc(C)cn3)C2)cc1F` (stereo not given) | 1.639 |
| 2 | `Cc1nc(N2CCC(C(O)c3nccn3C)CC2)c2sccc2n1` (stereo not given) | 0.6075 |
| 3 | `NC(=O)CSc1nnc2[nH]c(=O)c3c(n12)CCCC3` | 1.03 |
| 4 | `Cc1cccc(CN2CCC3(CCN(c4ncccn4)C3)C2=O)c1` (stereo not given) | 1.633 |
| 5 | `O=C(Nc1cc(-c2ccncc2)no1)C1CCC1` | 6.736 |
| 6 | `COC(=O)c1ccccc1NC(=O)c1c(C)cn(C)c1CC(=O)O` | -0.08172 |
| 7 | `Cc1nc(C)n(CC2CCCN2CC(=O)NC2CCOCC2)n1` (stereo not given) | 2.446 |
| 8 | `Cc1nc(C2CCCN2Cc2nccn2CC(F)(F)F)no1` (stereo not given) | 0.1968 |
| 9 | `CN(C)C(=O)C1CCCN1CCCNC(=O)c1ccccc1Cl` (stereo not given) | 4.907 |
| 10 | `CCn1nc(C)c(C(C)NC(=O)c2cccc(NCC(=O)O)c2)c1C` (stereo not given) | -0.3625 |
| 11 | `Cc1nc(C2CN(Cc3scnc3C)CCO2)cc(N(C)C)n1` (stereo not given) | -0.7445 |
| 12 | `CCS(=O)(=O)NC[C@]12COC[C@H]1CN(CCc1ccccc1)C2` | 6.48 |
| 13 | `O=C(c1cnco1)N1CCCC(Cc2nccs2)C1` (stereo not given) | 7.233 |
| 14 | `CCc1nnc2n1CCN(Cc1cccc3c1OCCO3)C2` | -2.099 |
| 15 | `CCN(CC)[C@@H]1CN(Cc2ccc(C)o2)[C@@H]2CCCO[C@H]12` | -1.134 |
| 16 | `CN(c1ccc(F)c(F)c1)S(=O)(=O)c1cc2c(c(C(=O)O)c1)OCCO2` | 2.904 |
| 17 | `OC(COCc1ccco1)CN1CCc2c(ncn2C2CC2)C1` (stereo not given) | 0.664 |
| 18 | `COCCN1CCC2(COCCN(Cc3ccc4c(c3)OCO4)C2)C1` (stereo not given) | 6.562 |
| 19 | `Cn1cc(C2(C)CN(Cc3ccc(O)c(Cl)c3)CCO2)cn1` (stereo not given) | 3.556 |
| 20 | `CCC(C(=O)N1CCCN(CCN(C)C)CC1)N1CCCC1=O` (stereo not given) | 8.315 |
| 21 | `Cc1ccc(CN2C[C@H]3CN(C(=O)c4ccno4)CCN3C2=O)cc1` | 3.559 |
| 22 | `CCc1noc(C(C)N2CCN(Cc3cnc(C)cn3)CC2)n1` (stereo not given) | 5.927 |
| 23 | `Cc1ccccc1-c1noc(-c2ccc(NCC3COCCO3)nc2)n1` (stereo not given) | 2.285 |
| 24 | `CC(CNC(=O)c1ccc(=O)[nH]n1)N1CCc2ccccc21` (stereo not given) | 1.192 |
| 25 | `CCOc1cccc(C(=O)N2CCC3(CC2)[C@H](O)C[C@@H]3OC)c1` | 2.463 |
| 26 | `Cn1cc(C2CCCN2C(=O)CS(=O)(=O)C2CCCC2)cn1` (stereo not given) | 3.104 |
| 27 | `O=C(c1cn(-c2cc(N3CCSCC3)ncn2)cn1)N1CCOCC1` | 1.369 |
| 28 | `Cn1nc(-c2cccs2)cc1[C@H]1CN2CC[C@H]1C[C@@H]2CN` | 1.511 |
| 29 | `Cc1cccc(C(=O)N2CCCC(Cc3cncc4ccccc34)C2)n1` (stereo not given) | 2.082 |
| 30 | `COCc1cccc(C(=O)N2CCN(C3=NCC(C)(C)S3)CC2)c1` | 7.701 |
| 31 | `Cc1ncccc1OC1(C(=O)NCc2noc(C(C)C)n2)CCNCC1` | 2.747 |
| 32 | `CCOc1ccc(C(=O)Nc2ccn(CC)n2)cc1` | 4 |
| 33 | `CCC(CNC(=O)Nc1cnn(CC)c1)N1CCc2ccccc2C1` (stereo not given) | 0.5825 |
| 34 | `COCCN1C[C@@H]2CN(Cc3cccc(F)c3)CCC[C@]2(C(=O)O)C1` | -2.758 |
| 35 | `CCc1nc(N2CCOCC2)ncc1C(=O)NC(c1cccs1)C(C)C` (stereo not given) | 1.359 |
| 36 | `CCn1nc(C)c2nc(C(C)C)nc(NC)c21` | 1.062 |
| 37 | `COc1ccc(F)cc1C(=O)N1C[C@H]2C[C@H](OC)C[C@H]2C1` | 0.9254 |
| 38 | `N#Cc1ccc(NCC(O)c2ccco2)c(C(F)(F)F)c1` (stereo not given) | 2.57 |
| 39 | `CSC(C)(C)CNC(=O)NCC[S+]([O-])c1ccccc1F` (stereo not given) | 1.443 |
| 40 | `O=C(O)c1cc(C2=CCCCC2)cc(S(=O)(=O)NCc2ccccn2)c1` | 3.682 |
| 41 | `Cc1ccc(NC(=O)N2CCOC(C)C2)cc1Cl` (stereo not given) | 1.681 |
| 42 | `CC1(C(=O)NCc2cccc(C(F)(F)F)c2)CCOCC1` | -1.307 |
| 43 | `CNc1cc(CNC(=O)c2ccccc2OC)nc(-c2ccncc2)n1` | 4.589 |
| 44 | `Cc1nc(C(C)N(C)Cc2nc(CCC(C)C)no2)c(C)s1` (stereo not given) | 0.9626 |
| 45 | `c1ccc(-c2nc(CNC3CCCN(c4cccnn4)C3)no2)cc1` (stereo not given) | -1.66 |
| 46 | `Cc1nc[nH]c1C(=O)N1CCC2(CN(C)C(=O)O2)C1` (stereo not given) | 11.96 |
| 47 | `O=c1cc(Cn2cncn2)nc2n1CCCN(Cc1ccco1)C2` | 7.074 |
| 48 | `CS(=O)(=O)c1ccc(OCCNCc2cccc(F)c2)cc1` | -2.23 |
| 49 | `CN(C)C(=O)N1Cc2ncn(C)c2C(COCC2CCOCC2)C1` (stereo not given) | 1.858 |
| 50 | `NC(=O)NC(=O)CCSc1ccccc1Cl` | 1.631 |
| 51 | `CCCn1nc2c(cc1=O)CN(CCS(C)(=O)=O)CC2` | 5.804 |
| 52 | `C1CC(c2noc(C3CC3)n2)N(Cc2nnc(C3CC3)o2)C1` (stereo not given) | 0.752 |
| 53 | `CN1CCN(c2ncccc2N)CC1` | 4.713 |
| 54 | `Cc1cc(NC(=O)CCc2ccsc2)n(C)n1` | 3.553 |
| 55 | `COc1cccc(COC(C)C(=O)NCc2nnc3n2CCC3)c1` (stereo not given) | -0.08846 |
| 56 | `O=C(c1ccco1)N1CC(S(=O)(=O)c2ccc(Cl)cc2)C1` | -3.306 |
| 57 | `Cc1nn(C)c(C)c1NC(=O)CNC(c1ccccc1)C1CCC1` (stereo not given) | 2.718 |
| 58 | `Cc1noc(COCC(=O)N2CCCCC2c2nccs2)n1` (stereo not given) | -0.8315 |
| 59 | `Cc1cnn(C2CN(c3nc(-c4ccncc4)nc4c3CCC4)C2)c1` | 3.106 |
| 60 | `O=C(NCCn1cccc1)c1c(O)cc(F)cc1F` | -0.5949 |
| 61 | `CCNC(=O)N1CCCCC1CCNS(C)(=O)=O` (stereo not given) | 2.821 |
| 62 | `Cc1nc(CN2CCN(C(=O)C(c3ccccc3C)N(C)C)CC2)no1` (stereo not given) | 4.945 |
| 63 | `COCC(=O)N1CCC(c2n[nH]c3nccnc23)CC1` | 5.75 |
| 64 | `COC(=O)c1cccn1C1CCN(C(=O)c2cc(F)ccc2F)CC1` | 1.009 |
| 65 | `COCCN1C[C@H]2CCN(C(=O)Nc3ccccc3C)CC[C@H]2S1(=O)=O` | 4.589 |
| 66 | `CC(C)NC(=O)c1nc2c(s1)CCCN2Cc1ccccc1` | 0.3987 |
| 67 | `COCCC1(CNC(=O)Nc2ccc(-n3ccnn3)cc2)CCC1` | 4.973 |
| 68 | `COc1ccccc1C(NC(=O)CN(C)C(C)C)c1noc(C)n1` (stereo not given) | 6.236 |
| 69 | `CCn1cnnc1CNC(=O)N1CCN(C(C)C)CC1` | -1.016 |
| 70 | `Cc1ncsc1C(=O)NCc1ccnc(OCC(F)(F)F)c1` | 1.597 |
| 71 | `CC(C)CN1C(=O)C[C@@H]2[C@@H]1CCN2Cc1cccc(C#N)c1` | -0.112 |
| 72 | `Cc1ccccc1CNC(=O)c1ccccc1-n1cnc(CN)c1` | 2.193 |
| 73 | `CCCOC1CCCN(C(=O)c2csc(S(N)(=O)=O)c2)C1` (stereo not given) | -3.506 |
| 74 | `CCC(O)C1CCN(C(=O)Nc2nc(-c3ccccc3)ns2)CC1` (stereo not given) | -3.517 |
| 75 | `Cc1cnccc1CN1C[C@@H](O)[C@H](Oc2cccc(F)c2)C1` | 5.282 |
| 76 | `Fc1ccc(OCc2nnc([C@H]3CCN(Cc4ccccn4)C3)o2)cc1` | 4.195 |
| 77 | `CN(C)CCNC(=O)c1ccc2c(-c3nccs3)noc2c1` | 3.371 |
| 78 | `O=S1(=O)c2cccnc2OC(COc2ccccc2)CN1CC1CC1` (stereo not given) | 3.277 |
| 79 | `COc1ccc(-c2nc(C(=O)NCC3CCOC3)cs2)cc1OC` (stereo not given) | -0.3974 |
| 80 | `CC(=O)N1CC(c2ccnc(Nc3ccc(C)cn3)n2)C1` | 1.221 |
| 81 | `N#Cc1ccc(N2CCC3(CC2)COCCN3Cc2cccnc2)cc1` | 0.1002 |
| 82 | `CCn1c(N)nc2cc(C(=O)NCCc3ccncc3)cnc21` | 7.708 |
| 83 | `CCOc1ccnc(N2CCN(C(=O)c3cn[nH]c3C)CC2)n1` | -1.026 |
| 84 | `Cc1cc(=O)[nH]c(-n2nc(-c3cccs3)cc2N)n1` | 1.132 |
| 85 | `COc1ccc(OCC(=O)NS(=O)(=O)c2cc(C)ccc2C)cc1` | 5.722 |
| 86 | `Cc1noc(C)c1S(=O)(=O)N1CCC(Oc2cccnn2)CC1` | -0.8035 |
| 87 | `CNC(=O)c1cccc(NC(=O)NCc2ccccc2)c1C` | -0.4035 |
| 88 | `Cc1ccc(Oc2ncccc2CNC2CCOCC2)cn1` | 2.659 |
| 89 | `CC(C)c1nn(C)c(N(C)C)c1CNCc1cccnc1N(C)C` | 1.241 |
| 90 | `CC(C)(C)CC(=O)NS(=O)(=O)c1ccc(C#N)cc1C(F)(F)F` | -0.8784 |
| 91 | `CN1CCN(C)C(c2nnc3ccc(C(=O)N4CCOCC4)cn23)C1` (stereo not given) | 6.058 |
| 92 | `O=C(NC1CCc2ccccc2C1)N1CCN(C(=O)C2CCC2)CC1` (stereo not given) | -0.5211 |

The last 7 entries again:

SMILES,percent effect
Cc1noc(C)c1S(=O)(=O)N1CCC(Oc2cccnn2)CC1,-0.8035
CNC(=O)c1cccc(NC(=O)NCc2ccccc2)c1C,-0.4035
Cc1ccc(Oc2ncccc2CNC2CCOCC2)cn1,2.659
CC(C)c1nn(C)c(N(C)C)c1CNCc1cccnc1N(C)C,1.241
CC(C)(C)CC(=O)NS(=O)(=O)c1ccc(C#N)cc1C(F)(F)F,-0.8784
CN1CCN(C)C(c2nnc3ccc(C(=O)N4CCOCC4)cn23)C1 (stereo not given),6.058
O=C(NC1CCc2ccccc2C1)N1CCN(C(=O)C2CCC2)CC1 (stereo not given),-0.5211